These are yes or no findings as the source states them, for the method shown. Binding seen in cells or lysates may run through a third protein. Some entries that bind do so weakly or less than the wild type. Sequences can lack the tags named with a protein.

Protein sequences, listed by entry. Tags and fused reporters are not part of them.
UniProt P62330: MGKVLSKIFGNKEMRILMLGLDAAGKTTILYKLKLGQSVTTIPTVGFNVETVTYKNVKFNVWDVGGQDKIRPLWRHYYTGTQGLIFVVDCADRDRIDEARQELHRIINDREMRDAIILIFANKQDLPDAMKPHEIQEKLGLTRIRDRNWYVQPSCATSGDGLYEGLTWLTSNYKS

The target of this test is T1, GST-GGA3 GAT (141-327aa) (UniProt Q9NZ52).
T1 sequence: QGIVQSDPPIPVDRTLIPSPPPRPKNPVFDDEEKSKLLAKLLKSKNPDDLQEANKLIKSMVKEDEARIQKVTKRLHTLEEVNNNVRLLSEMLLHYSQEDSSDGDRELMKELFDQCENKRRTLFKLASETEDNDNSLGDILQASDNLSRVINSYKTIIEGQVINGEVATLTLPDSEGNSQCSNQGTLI
As to the kind of experiment: pull-down; GST-GGA3 immobilised on glutathione-sepharose beads, incubated with lysate of serum-starved, LPA-stimulated HepG2 cells at 4 °C for 1 hour; Arf6 in the pellets detected by Western blotting; only the target purified. A general note: A western blot detects proteins with antibodies after separation by electrophoresis.

As to “ADP-ribosylation factor 6 (Arf6), GTP-bound (from UniProt P62330 1-175)”, the binding result is reported as “binds”.

The values above are taken from PMC12681849.
